Values from PubChem BioAssay AID1159584 (Peter MacCallum Cancer Centre, 2016).
Screen: 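Knock-downs that harm CDH1-null cells more than parental MCF10A cells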 (primary screen). Cells: human MCF10A breast epithelial cells, parental and CDH1-null. Reagents: siRNA against human genes. Measurement: 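ATP luminescence (CellTiter-Glo) viability per line relative to mean mock wells over all plates, and the ratio of CDH1-null to parental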. Direction: CDH1-null / parental viability ratio: higher = CDH1-null cells survive relatively better than parental; CDH1-null viability vs mock: higher = more viable CDH1-null cells; parental viability vs mock: higher = more viable parental cells.
The whole screen tested about 18,000 reagents; below is an unselected part. The numbers tell different reagents against one gene apart. The record does not give: the amount of reagent, the time to read-out.

gene knocked down,siRNA no.,CDH1-null / parental viability ratio,CDH1-null viability vs mock (fraction of mock),parental viability vs mock (fraction of mock)
E2F5 (GeneID 1875),1,0.89,0.82,0.92
SCGB2B2 (GeneID 284402),1,1.09,0.96,0.88
SSC4D (GeneID 136853),1,0.85,0.71,0.84
SUFU (GeneID 51684),1,0.93,0.8,0.86
NIPA2 (GeneID 81614),1,0.85,0.73,0.86
GDAP1L1 (GeneID 78997),1,1.16,0.86,0.74
FOXN4 (GeneID 121643),1,1.33,0.85,0.64
RITA1 (GeneID 84934),1,0.81,0.76,0.94
USP20 (GeneID 10868),1,1.2,0.83,0.69
ABHD10 (GeneID 55347),1,1.23,0.79,0.64
SYNGR1 (GeneID 9145),1,1.07,0.32,0.3
LINC03122 (GeneID 285668),1,0.79,0.81,1.02
OSMR (GeneID 9180),1,0.96,0.92,0.96
TENT5D (GeneID 169966),1,0.85,0.61,0.72
CD86 (GeneID 942),1,0.98,0.79,0.81
COMT (GeneID 1312),1,0.94,0.74,0.79
SAT2 (GeneID 112483),1,0.9,0.92,1.02
ANO2 (GeneID 57101),1,1.07,0.77,0.72
RPL7 (GeneID 6129),1,1.12,0.38,0.34
SPRY1 (GeneID 10252),1,0.74,0.56,0.76
TIMMDC1 (GeneID 51300),1,1.22,0.96,0.79
TMIGD1 (GeneID 388364),1,1.03,0.64,0.62
HDHD5 (GeneID 27440),1,1.25,1.25,1
FBXO15 (GeneID 201456),1,1,0.86,0.86
MEF2D (GeneID 4209),1,1.26,1.29,1.02
SLCO4C1 (GeneID 353189),1,0.9,0.76,0.84
SPESP1 (GeneID 246777),1,0.68,0.52,0.77
SPINK4 (GeneID 27290),1,1.18,0.97,0.82
FKBP6 (GeneID 8468),1,0.73,0.69,0.94
MON1A (GeneID 84315),1,1.33,1.1,0.83
NDUFB6 (GeneID 4712),1,0.93,0.53,0.57
TYRO3 (GeneID 7301),1,0.89,0.66,0.74
PDIA5 (GeneID 10954),1,1.25,0.8,0.64
LAMP2 (GeneID 3920),1,0.98,0.97,0.99
FAM50B (GeneID 26240),1,1.02,0.43,0.42
RIPK4 (GeneID 54101),1,1.13,0.88,0.78
SPINK9 (GeneID 643394),1,0.91,0.84,0.92
CCDC83 (GeneID 220047),1,0.85,0.68,0.8
MMP27 (GeneID 64066),1,1.16,0.93,0.8
ASRGL1 (GeneID 80150),1,1.03,1.02,0.99
MYF6 (GeneID 4618),1,1.12,0.87,0.78
DHX36 (GeneID 170506),1,1.19,0.88,0.74
DAOA (GeneID 267012),1,0.95,0.79,0.83
LGALS4 (GeneID 3960),1,1.14,0.83,0.73
ZFYVE21 (GeneID 79038),1,0.79,0.54,0.68
PGM1 (GeneID 5236),1,1.01,0.96,0.95
AP5M1 (GeneID 55745),1,1.03,0.68,0.66
GPD1L (GeneID 23171),1,0.9,0.43,0.48
GOSR2 (GeneID 9570),1,0.86,0.76,0.88
BCORL1 (GeneID 63035),1,0.92,0.9,0.98
C1RL (GeneID 51279),1,1.69,0.54,0.32
GCAT (GeneID 23464),1,0.9,0.78,0.87
TLR3 (GeneID 7098),1,0.99,0.84,0.85
PRDX4 (GeneID 10549),1,1.11,1.19,1.07
CSNK1E (GeneID 1454),1,0.74,0.57,0.77
MEGF6 (GeneID 1953),1,1.12,0.38,0.34
HCFC2 (GeneID 29915),1,1.07,0.92,0.86
FTHL17 (GeneID 53940),1,1.42,0.68,0.48
RPL35A (GeneID 6165),1,1.62,0.42,0.26
ELMOD1 (GeneID 55531),1,1.01,0.93,0.92
ELMOD1 (GeneID 55531),2,1.05,0.68,0.65
DENND4C (GeneID 55667),1,0.84,0.76,0.9
ABCA3 (GeneID 21),1,0.98,0.51,0.52
SLC25A11 (GeneID 8402),1,1.14,0.9,0.79
SPRR2A (GeneID 6700),1,1.24,0.97,0.78
CFAP44 (GeneID 55779),1,0.9,1,1.11
ZBTB1 (GeneID 22890),1,1.17,1.08,0.92
ZBTB46 (GeneID 140685),1,0.84,0.71,0.85

Not a retest: entries from further up.
gene knocked down,siRNA no.,CDH1-null / parental viability ratio,CDH1-null viability vs mock (fraction of mock),parental viability vs mock (fraction of mock)
SSC4D (GeneID 136853),1,0.85,0.71,0.84
SUFU (GeneID 51684),1,0.93,0.8,0.86
NIPA2 (GeneID 81614),1,0.85,0.73,0.86
GDAP1L1 (GeneID 78997),1,1.16,0.86,0.74
FOXN4 (GeneID 121643),1,1.33,0.85,0.64
RITA1 (GeneID 84934),1,0.81,0.76,0.94
USP20 (GeneID 10868),1,1.2,0.83,0.69
ABHD10 (GeneID 55347),1,1.23,0.79,0.64
SYNGR1 (GeneID 9145),1,1.07,0.32,0.3
LINC03122 (GeneID 285668),1,0.79,0.81,1.02
OSMR (GeneID 9180),1,0.96,0.92,0.96
